These are yes or no findings as the source states them, for the method shown. Binding seen in cells or lysates may run through a third protein. Some entries that bind do so weakly or less than the wild type.
Biological target: transient receptor canonical ion channel (TRPC1) (human (endogenous in PANC-1)) (UniProt P48995)
Test: co-IP; 500 µg protein of non-transfected or siCTRL/siTRPC1-transfected PANC-1 cells; 1 µg TRPC1 antibody or PI3K p85α antibody on Protein A magnetic beads; lysate rotated 2 h at room temperature; Western blot; co-precipitate reduced after TRPC1 knock-down

By UniProt entry, the sequences of proteins in these tests, tags left out.
UniProt P48995: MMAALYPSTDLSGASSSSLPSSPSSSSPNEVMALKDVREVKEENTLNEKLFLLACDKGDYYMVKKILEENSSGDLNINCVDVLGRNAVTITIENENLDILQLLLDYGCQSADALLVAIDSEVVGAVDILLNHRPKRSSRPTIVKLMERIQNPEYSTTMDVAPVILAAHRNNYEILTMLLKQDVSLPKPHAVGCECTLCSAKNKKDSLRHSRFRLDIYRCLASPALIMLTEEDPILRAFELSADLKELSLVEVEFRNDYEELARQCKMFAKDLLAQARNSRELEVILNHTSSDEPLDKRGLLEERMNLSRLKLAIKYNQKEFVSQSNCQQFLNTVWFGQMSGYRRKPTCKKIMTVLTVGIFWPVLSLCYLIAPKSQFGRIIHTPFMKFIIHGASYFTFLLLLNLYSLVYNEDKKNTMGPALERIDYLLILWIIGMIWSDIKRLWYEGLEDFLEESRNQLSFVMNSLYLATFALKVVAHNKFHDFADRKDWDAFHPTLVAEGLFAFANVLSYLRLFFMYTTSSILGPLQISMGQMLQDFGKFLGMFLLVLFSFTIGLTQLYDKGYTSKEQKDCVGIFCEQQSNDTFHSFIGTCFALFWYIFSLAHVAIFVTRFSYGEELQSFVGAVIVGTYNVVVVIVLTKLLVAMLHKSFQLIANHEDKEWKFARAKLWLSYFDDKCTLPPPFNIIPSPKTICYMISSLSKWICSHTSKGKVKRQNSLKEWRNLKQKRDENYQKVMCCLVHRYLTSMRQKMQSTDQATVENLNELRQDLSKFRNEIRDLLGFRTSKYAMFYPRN
UniProt P27986: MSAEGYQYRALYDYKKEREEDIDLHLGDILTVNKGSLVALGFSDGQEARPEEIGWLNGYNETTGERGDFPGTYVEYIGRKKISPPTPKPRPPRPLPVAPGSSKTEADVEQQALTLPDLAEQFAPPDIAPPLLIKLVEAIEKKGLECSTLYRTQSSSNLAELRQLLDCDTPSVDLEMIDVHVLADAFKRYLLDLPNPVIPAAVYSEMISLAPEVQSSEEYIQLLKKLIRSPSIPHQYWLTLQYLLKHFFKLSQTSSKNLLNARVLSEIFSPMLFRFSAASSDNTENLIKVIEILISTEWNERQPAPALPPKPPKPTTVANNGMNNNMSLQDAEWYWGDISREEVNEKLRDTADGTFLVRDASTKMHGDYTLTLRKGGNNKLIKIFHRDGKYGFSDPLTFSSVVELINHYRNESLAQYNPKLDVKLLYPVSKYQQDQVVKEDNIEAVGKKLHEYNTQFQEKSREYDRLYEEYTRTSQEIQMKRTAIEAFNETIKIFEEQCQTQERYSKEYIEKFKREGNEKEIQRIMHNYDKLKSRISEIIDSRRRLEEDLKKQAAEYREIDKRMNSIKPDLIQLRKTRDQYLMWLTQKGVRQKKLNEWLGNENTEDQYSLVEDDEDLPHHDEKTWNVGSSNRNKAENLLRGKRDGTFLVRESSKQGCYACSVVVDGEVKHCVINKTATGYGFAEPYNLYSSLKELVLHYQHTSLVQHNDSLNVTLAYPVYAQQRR

- binding: binds
Substance: PI3K p85α subunit (from UniProt P27986 1-724)
